Reference: PubChem BioAssay AID1347426 (Functional Genomics Laboratory (NCATS/FGL), 2020)
Out of some 31,000 sequences screened, about 1,400 (4.5%) were called active.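 The calls were made as follows: active = median seed-adjusted z-score above 1 or below -1; inactive = the rest.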 Some of the results follow.

Assay: Novel Modifiers of Survival Motor Neuron (SMN) Protein: Gene Identification via Genome-wide siRNA Screen;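 also: luminescence tracks full-length SMN protein made from the SMN2 reporter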
Conditions: HEK293T SMN2-luciferase reporter, siRNA knockdown, 72 h; actives lie on both sides
Summary of the method: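 Each of three siRNAs per gene is reverse-transfected (1 pmol) into reporter HEK293T cells whose luciferase output tracks SMN protein level. After 72 h culture, ONE-Glo luminescence is control-normalized, log10-transformed and MAD-standardized; Common Seed Analysis deprioritizes seed-driven hits.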

| Sequence | median seed-adjusted z-score |
| --- | --- |
| CGGGUAUGUUGAUAGCAUATT against FAM12B | inactive: 0.312 |
| CCUCAGCAGUGUAAGAUAUTT against HAS2 | inactive: 0.354 |
| GUUGGAUCCUGGGACAAUATT against F13A1 | inactive: -0.508 |
| CGACGAGUCUUCCUGCAUATT against IRX6 | inactive: -0.0329 |
| AGAUGAGAUUUACCUGUGATT against UBE2G2 | inactive: -0.043 |
| CAAUAGGUGUGAAGAGGUATT against TRIM41 | inactive: -0.164 |
| CAAUGUCUCUAAGAAGGAUTT against STARD8 | inactive: -0.135 |
| CCAUUGCCGUAUGCAUCUATT against BTN2A1 | inactive: 0.302 |
| CAAACUUCUUCGAGAAGAATT against DUSP9 | inactive: 0.61 |
| GGAGACUAGUAAGCACUAUTT against JARID1B | inactive: 0 |
| CACUAGUUUUGUUAGCGAATT against ATP13A4 | active: -1.09 |
| AGACCAUCGCAGAGACAGATT against SLC31A2 | inactive: 0.401 |
| GGGAAAGCACAAACUCAGATT against HOXA4 | inactive: 0.194 |
| GAUACUCGUAUUAAGCCUATT against USP32 | inactive: 0.484 |
| GGAUGUUGGUUUUGGGAUUTT against SEC14L2 | inactive: -0.253 |
| GAAACGAUAUGAAUGUAAATT against ZNF491 | inactive: 0.0642 |
| GAAAACGAUUUUGAACAUATT against PSEN1 | inactive: -0.679 |
| UAAUCUCAUUCAAAGAAUATT against NEUROG3 | inactive: 0.212 |
| GAACUUACCUUCAACUACATT against NSD1 | inactive: -0.372 |
| UGCAUUCAAUGGAACCCAATT against FSHR | inactive: -0.462 |
| GAUUGAUCUUGUUCCACGATT against TRIP12 | inactive: 0.16 |
| CGAUGAGAAUGUGAGUACUTT against ACCN1 | inactive: -0.325 |
| CCUCACGCGUGGAAAUACATT against ZDHHC11 | inactive: -0.098 |

Pulled one by one from above, two records:

| Sequence | median seed-adjusted z-score |
| --- | --- |
| AGAUGAGAUUUACCUGUGATT against UBE2G2 | inactive: -0.043 |
| CGGGUAUGUUGAUAGCAUATT against FAM12B | inactive: 0.312 |

Remaining list, next part.

| Sequence | median seed-adjusted z-score |
| --- | --- |
| UGUUCUCACUAAUAGGUUUTT against TRIML1 | inactive: 0 |
| AUAUCUCCGCUAUCAUUGATT against CYP4F22 | inactive: 0.383 |
| CCAAGUUUACUUGAUCGUATT against LSAMP | inactive: -0.12 |
| GCGACCACCUGAGCAAACATT against SP7 | inactive: -0.0435 |
| GGAGAGGAUUAUUUCCGCATT against SDR9C7 | inactive: 0 |
| GCUCCAAUGUCUACAGAAATT against MRGPRE | inactive: -0.65 |
| GUCAAGAAUUUAUAGGGAATT against SOX5 | inactive: 0.123 |
| GCAUCUGCUCUGAAACAGATT against MPPE1 | inactive: -0.409 |
| GAACAAGCGCAUGACAAUATT against TERF2 | inactive: 0.246 |
| CAUAUUUACCUGAAUCACATT against TYMS | inactive: -0.6 |
| GAUCAAAUAUGACUUCCUATT against GPR103 | inactive: 0 |
| CAAUAGCUUUGCUAGAUAUTT against HIAT1 | inactive: -0.0612 |
| GGCACAGCUUAAACAGAAATT against JUN | inactive: 0.381 |
| CGUGGAAUUUGGACACUUUTT against MYOC | inactive: 0.764 |
| GGCAUUACCUGACAGCUUATT against RFX4 | inactive: -0.0226 |
| CAUUCGUUCUUACAAGGAATT against FMNL3 | inactive: 0.481 |
| CAUUGGUGUUGACAAUCCATT against CCT2 | inactive: -0.0508 |
| GGUCGAGUCUCAUUAAUCATT against ZNF84 | inactive: -0.246 |
| CUGACAUGCCUGUACCUCUTT against CDK5R1 | inactive: 0.373 |
| GGCUCUAGCUAGUAGUCAATT against PIGK | inactive: -0.456 |
| AGAGACAUGUGCACCCAAATT against SPRR4 | inactive: 0.211 |
| CAGCGCAGAUGUUAACUCATT against ZFPM1 | inactive: -0.925 |
| CAACAUCGUGGUUUUUGAATT against CLDN8 | inactive: 0.542 |

| Sequence | median seed-adjusted z-score |
| --- | --- |
| GACACUAUCUUGAUCAGAATT against ACLY | inactive: 0.478 |
| CCUUUACCCUGGGAAUUGATT against PIGN | inactive: 0.215 |
| CAGUCAAGGUUUAUAUUCUTT against KCNJ1 | inactive: 0.0148 |
| GGCACCGGAUGGUUACAUUTT against DDX1 | inactive: 0.507 |
| GCAGCUACAGGUCAUCUCATT against DGAT2 | inactive: 0.195 |
| GACCUUACGAGGUUUCUAATT against TSNAX | inactive: 0.514 |
| GGAAGUAUUACACCGCAAATT against HMGCLL1 | inactive: 0.275 |
| CCAAACUAUUGUUAUCGUUTT against PPP2CA | inactive: 0.731 |
| GGAUGAUGAGAUGAACAUUTT against PDE1B | inactive: -0.384 |
| GCAUCUUUCAUGAUAUGGATT against SMPDL3A | inactive: 0.49 |
| GGAUCACACGCAUCCAUGATT against ZBTB20 | inactive: -0.521 |
| AGCUAGUUUCUGUCUCGAATT against LOXL3 | inactive: 0.517 |
| CAGACUCCUGUUUACCUUUTT against CLP1 | inactive: -0.372 |
| GAUCAACUGUUGUCGGUGATT against LIN7B | inactive: 0.236 |
| GCACCUACAACUGCGAGUATT against ART1 | inactive: 0.0033 |
| GGUGAAAGGUCAGAUCUAATT against ZNF436 | inactive: 0.00767 |
| CAAGUACAAUACUAACUGUTT against ZNF280C | inactive: 0.336 |
| AGAUGUUCACGAAACCUGUTT against TRIM55 | inactive: -0.483 |
| GAACCUACUUGUACAAUGATT against TNFRSF1A | inactive: 0.00772 |
| GGAUUUUGUUUUGAACGCATT against CDK2AP1 | inactive: 0.168 |
| CCUUCAAAGUUUAGAACAATT against B3GNT5 | inactive: -0.452 |
| GGAGGAGCAAUGGUACUUATT against ZNF512 | inactive: -0.675 |
